Results as given in the supplement of paper PMC3334620.
In all, about 33,000 sequences were measured (“E-score (-0.5 to 0.5)”: median about -0.0059, highest 2% from about 0.26 on). The list shows a part of the results.

The sequences below were run against T1, Cin5 (UniProt P40917) (assay: PBM E-score (8-mer binding enrichment) (E-score (-0.5 to 0.5)); higher = stronger / more preferred TF binding). Conditions: protein concentration: 100 nM; construct: GST-full length.
T1 sequence: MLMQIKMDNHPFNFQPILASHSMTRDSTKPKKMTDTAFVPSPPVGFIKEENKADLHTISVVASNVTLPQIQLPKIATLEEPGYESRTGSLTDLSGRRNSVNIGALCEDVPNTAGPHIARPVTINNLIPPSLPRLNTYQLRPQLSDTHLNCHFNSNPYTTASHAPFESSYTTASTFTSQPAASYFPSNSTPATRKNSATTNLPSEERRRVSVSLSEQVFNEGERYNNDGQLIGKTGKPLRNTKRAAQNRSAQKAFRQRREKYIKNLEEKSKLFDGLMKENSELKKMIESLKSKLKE
Method: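 Universal 'all 10-mer' protein binding microarrays (Agilent AMADID 015681) probed with GST-tagged S. cerevisiae TFs (full-length or DBD) made by in vitro transcription/translation (PURExpress), about 100-200 nM. Bound TF was detected with fluorescent anti-GST. Each ungapped 8-mer (which stands for itself and its reverse complement) is scored by the PBM enrichment score (E-score), a modified Wilcoxon-Mann-Whitney statistic from -0.5 to +0.5, computed with the Universal PBM Analysis Suite. Scale: above 0.35 generally sequence-specific binding.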

Sequence | PBM E-score
TCCACTAA | 0.0246
ACTCCTAA | 0.00319
CTGGGTAA | -0.0503
ATAACATA | 0.26
ACTGCGTA | -0.253
CGCCCGAG | -0.03
AAGGGCCA | -0.124
CGCGCAAA | 0.241
GGTGCGAA | 0.0226
TCGACACA | 0.0542
ATAGAGTA | 0.119
ACAAGCCG | -0.0858
GAACACGA | 0.0378
AAGATAGT | 0.163
GGTTCAAC | -0.0864
ATCTTATA | 0.223
ATTGACCG | 0.127
CCCAGATA | -0.0105
ACAGCCGC | -0.153
CAACGCGG | -0.106
ACCATTCA | 0.0437
ACTTTGTC | 0.035
CCAGCTCA | 0.0449
GGGGCGTA | -0.0418
CACTACCG | -0.2

Sequence | PBM E-score
CCGGCTGA | 0.107
TCGTACAA | 0.0773
AAGAAAAG | 0.056
CCAAGCCA | -0.132
GAAGGCCA | -0.179
AATAACAA | 0.182
CACTACTG | 0.03
AGCTAACT | -0.0235
ACAGTATC | 0.0811
CAAGATTC | 0.0363
ATATATGC | 0.175
GAATCAGA | 0.2
AGATAGAC | -0.0516
CTGCTTGA | -0.185
ACGCTTGG | -0.108
CGCGCATC | -0.134
ATCTGGGA | -0.149
CAAGGGCG | -0.219
CTCCTTCC | -0.14
ACGCAGAT | 0.0298
ATGAATAA | 0.142
AGGGAACT | -0.169
GCTATGGA | -0.01
GACGGACC | -0.0258
GGGTGACA | 0.0313

Sequence | PBM E-score
AGTCGGAA | 0.144
TCCAGCAA | -0.0121
AGCAGAAT | 0.181
CGGTTTAG | -0.0638
ACAAAGCC | -0.0329
AGGTTCGA | 0.181
AATGATTG | 0.205
TAAACACA | 0.0718
AGGATCCG | -0.123
ATGTCAAC | 0.0833
GCGTCGGA | -0.028
CCTATTCC | 0.0295
ATAAAAGA | 0.00942
GCTCTAAA | -0.109
AGATCGGG | -0.0481
AGGTTATC | -0.0169
CCGTCCAC | 0.0862
TCCTGAAA | -0.0642
AATGAAAA | 0.24
AATGGTGG | -0.0523
ACTGTCGG | -0.186
AGACTGTA | 0.0527
ATCACGTC | 0.186
GTGGCGCA | 0.0152
CTACGATA | 0.121

Sequence | PBM E-score
AAAAATGA | 0.155
CAACAAGG | 0.0656
CTGTGCAC | -0.214
AATGGGCA | 0.116
CGAAACCG | 0.064
CAACTATC | 0.0334
GCCACAGA | -0.199
CTCCATCA | -0.011
GGTGGCAC | -0.191
ATAAGGAG | -0.0313
CTCCTGTC | -0.203
GCCGTTAC | -0.0362
TCGCGAGA | 0.1
AGCTACGG | -0.0334
CCACCCAA | 0.14
AATAACGG | 0.159
GACGATGC | -0.128
GCAACACC | 0.0724
ACGCGCCA | -0.173
AGTCAAGC | -0.0384
CGATGGTA | 0.025
CAAAGGAC | -0.217
ATTTTTAA | 0.176
TCGCAAAA | 0.156
GGCGATAC | -0.0061

Sequence | PBM E-score
TCGCTCAA | 0.176
TCGCGACA | 0.108
CCAGGGGA | -0.253
CTTACCGA | 0.0713
AAGCATGA | 0.0253
AATGATGA | 0.236
CTGGGATA | -0.0527
AGAATTTA | 0.126
TCGTTTAA | 0.0513
AGCCACCA | -0.134
ATATATAG | 0.26
TCTAATAA | 0.0206
ACGTATGC | 0.0624
ATTGAGGA | 0.0445
AAGGGTGG | -0.117
ACACAGTG | 0.128
TAAGAACA | 0.29
GTTCTTTA | 0.103
GATCAACC | 0.0375
ATTCATGC | 0.103
GTTCGCTA | -0.0567
AGCAACGA | 0.125
ACCCTGAA | -0.0938
GATACGCA | 0.0118
GAGCAGGA | -0.0677

Sequence | PBM E-score
GGCAAGAA | 0.00176
GGGGCACA | -0.188
ATAGGGAC | -0.15
GCGTTGCA | -0.11
AAAGCCTG | -0.165
TAGGCCTA | -0.00462
GCCTCGAA | -0.0384
ACTGGAGG | -0.0319
GCCGCGCC | -0.199
GCTACCAA | -0.191
AGATAGTG | 0.0979
CCTAGAAG | -0.212
CTGAATTC | 0.048
ACTCTGGA | 0.177
AGGCTTCA | -0.167
ATGTTCCA | 0.0609
CCACCACG | -0.0848
GCCAAGCC | -0.174
AACCTCAC | -0.124
CCAGTCTC | -0.217
ACGGATTA | 0.066
AATGTGAA | 0.134
TCGTACCA | 0.0222
ACTGCGCT | 0.129
CTAAACCA | -0.118

Retrieved one by one from above:
Sequence | PBM E-score
AACCTCAC | -0.124
GGGGCACA | -0.188
ACGGATTA | 0.066
CTAAACCA | -0.118
ACTCTGGA | 0.177
ATAGGGAC | -0.15
GCCTCGAA | -0.0384

Next part:

Sequence | PBM E-score
ATATCATC | 0.243
GGGTCGGA | -0.331
ACTGGTGG | -0.091
GAACCTCA | -0.156
CGAGTGTC | -0.108
GTGGACAA | 0.212
AAGGGTCC | -0.276
CTATTACA | 0.181
TAAGCCCA | 0.219
AACGTCCC | -0.12
CGATCGCC | 0.0437
CCAGCTAC | -0.126
AAAGGAGC | -0.19
CACGCTAC | -0.134
GAAGTACA | 0.0442
ACTAGCCA | -0.00477
AAGACTCC | -0.257
CAGCTTTA | 0.118
AGCGCCTA | -0.00036
CGGGTGTC | -0.00474
GGGTTTCA | 0.0671
GCCGGATA | 0.0793
CGCGCTAC | 0.029
GGTCCCGA | -0.22
ATAGCCTC | -0.104

3 entries from above, as tab-separated lines.
Sequence	PBM E-score
GGGTCGGA	-0.331
AAAGGAGC	-0.19
GGGTTTCA	0.0671

(cont.)

Sequence | PBM E-score
AAACTTGG | 0.111
TGTCAACA | 0.029
ACTCGGTG | -0.146
ATGTAACC | 0.0651
CAGACAAC | 0.0843
CTCTTTCC | -0.157
ACACGGAG | -0.0287
CCTACTGA | 0.034
GAAGCCTC | -0.202
TGAGTCCA | -0.11
AATGATGT | 0.148
AACTACAA | 0.165
AGTTCCGG | 0.0429
GCCTTACC | -0.233
GGTGCGGA | 0.0778
GCACCGTA | 0.059
CGCACAAA | 0.205
ACGAACCT | -0.0286
ATTCGGAA | 0.13
CTAGTATA | 0.0284
AGGGTACT | -0.105
ATCCAGCG | 0.137
ACTCAGAG | 0.0366
TAGACATA | 0.00513
AGACTCAT | 0.00954

Sequence | PBM E-score
ATTCGGGG | 0.0248
CACCTGAC | -0.0148
ATAAGCTG | 0.179
CGGCTCCC | -0.256
CGCGCTTC | -0.0491
CAAGTGGC | 0.173
GCCAAGAA | -0.00914
TCTCAAAA | 0.0986
GGTTAGGA | -0.246
AACCATAT | 0.17
CGGAGCGA | 0.157
GGAGTAAA | 0.232
ATCGCGCC | 0.16
AACAGCTT | 0.0565
CTATACAC | -0.0555
AGAGGACG | -0.0674
CTACTTGC | 0.0723
CCTGCCAA | -0.163
TATCTCCA | 0.112
